Measured values published in article PMC6318328, “Structural insights into trans-histone regulation of H3K4 methylation by unique histone H4 binding of MLL3/4” (Nature Communications, 2019).
No constants are given. Whether binding was seen depends on the method and setting.

Experiments:
Experiment in all cases: condition: peptide 1–2 mM in the syringe, protein 50–100 μM in the cell; ITC; peptide (1–2 mM) in the syringe injected into protein (50–100 μM) in the cell; 25 °C; 20 mM Tris pH 7.5, 150 mM NaCl; single-site binding model; both purified
[1] = target: T1, MLL3_(ePHD6)_(1055–1144) (human) (UniProt Q8NEZ4)
T1 sequence: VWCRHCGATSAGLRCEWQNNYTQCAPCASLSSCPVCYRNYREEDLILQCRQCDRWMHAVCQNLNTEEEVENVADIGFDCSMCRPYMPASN

[2] = target: T2, MLL3_(ePHD3)_(436–525) (human) (UniProt Q8NEZ4)
T2 sequence: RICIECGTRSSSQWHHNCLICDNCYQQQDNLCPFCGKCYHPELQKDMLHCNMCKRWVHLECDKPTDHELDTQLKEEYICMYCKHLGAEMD

[3] = target: T3, MLL3_(PHD5)_(1009–1055) (human) (UniProt Q8NEZ4)
T3 sequence: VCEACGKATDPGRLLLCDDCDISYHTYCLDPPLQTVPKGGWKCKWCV

binding [1] | binding [2] | binding [3] | Substance
no binding |  |  | histone H3 peptide H3_(1–15)K4me2 (from UniProt P68431 2-16)
no binding |  |  | histone H3 peptide H3_(1–20) (from UniProt P68431 2-21)
no binding |  |  | histone H4 peptide H4_(1–12)R3me2a (from UniProt P62805 2-13)

More lines, now with the values behind:

Substance | binding [1] | binding [2] | binding [3]
histone H3 peptide H3_(1–15)K4me3 (from UniProt P68431 2-16) | no binding |  | 
histone H4 peptide H4_(1–12) (from UniProt P62805 2-13) | no binding |  | 
histone H4 peptide H4_(11–21) (from UniProt P62805 12-22) |  | no binding | no binding
